From patent US6960559B1, “Neurite growth regulatory factors” (University of Zurich, priority 1988, dated 2005)
pIC50: −log10 of the molar value. Some entries share one result that the patent states for a list of compounds. Where a SMILES comes first, the peptide text is derived from it. The star is where a group is joined. Cbz = O=C(OCc1ccccc1)*

System: C6 glioblastoma cells
Format: cell-based, rat
Conditions: saturation limit; read-out: Concentration without effect on C6 cell spreading on PLYS
Protocol: Rat C6 glioblastoma cells (Benda et al., 1968, Science 161:370-371) were cultured in Dulbecco's modified Eagle's medium (DMEM) supplemented with 10% fetal calf serum (FCS), usually to maximally 70-80% confluency (Paganetti et al., 1988, J. Cell Biol. 107:2281-2291). All cell culture media were routinely supplemented with penicillin and streptomycin. Cells were harvested by a short trypsin treatment (0.1% in Ca^2+/Mg^2+-free [CMF] PBS/EDTA solution for 90 seconds) followed by addition of DMEM/10% FCS and centrifugation (600×g, 6 min). The cell pellet was rinsed with 5 ml DMEM/10% FCS and centrifuged. For cell spreading assays, cells were resuspended at 10^6/ml in defined serum-free medium (MEMα) supplemented with 0.2 μg/ml insulin, 0.5 μg/ml transferrin and 0.12 μg/ml bovine serum albumin (BSA). Protease blockers or peptides were added directly to the cell suspension from 10×solutions 10 min before plating.
Spinal cord myelin from young adult Lewis rats was purified on a discontinuous sucrose gradient (Colman et al., 1982, J. Cell Biol. 95:598-608; Schwab and Caroni, 1988, J. Neurosci. 8:2381-2393) and stored in 100 mM sucrose, 25 mM TRIS/HCl pH 7.4 at −80° C. up to 6 months. The myelin suspension ([…]) was incubated for 30 min on poly-D-lysine-coated wells (PLYS-wells). […] Experiments were scored as described (Paganetti et al., 1988, J. Cell Biol. 107:2281-2291).

Question: With `NC(=O)[C@H](Cc1ccccc1)NC(=O)CNC(=O)OCc1ccccc1` [cbz-gly-phe-NH2, carbobenzoxy-glycine-phenylalanine-amide] (Cbz-Gly-Phe-NH2) as the compound, how does the pIC50 read?
Answer: < 2.70

Question: `C[C@H](NC(=O)OCc1ccccc1)C(=O)N[C@@H](Cc1ccccc1)C(N)=O` [cbz-AF-NH2, carbobenzoxy-alanine-phenylalanine-amide] was tested. Which pIC50 did it give?
Answer: < 2.70
